Results are given in words; binding and its absence hold for the method and conditions named. In cells and extracts the contact can be indirect. Some binding calls cover weakened binding; strength is not graded here.
What was measured:
Test in all cases: co-IP; native IP of endogenous proteins from U2OS lysates (NP40 lysis buffer, sonicated); 100-600 ug total protein, 1 ug antibody, Dynabeads Protein G, overnight at 4 °C; washed twice with NP40 and twice with RIPA buffer; western blotting; cells untreated (Fig. 7b) or irradiated (6 Gy, 30 min recovery; Fig. 6a, b, h), with or without depletion of scaRNA2 or LINP1
[1] = molecular target: Ku80 (human (endogenous in U2OS)) (UniProt P13010)
[2] = molecular target: DNA-dependent protein kinase catalytic subunit (DNA-PKcs) (human (endogenous in U2OS)) (UniProt P78527)
[3] = molecular target: Ku70 (human (endogenous in U2OS)) (UniProt P12956)

Sequences of proteins named here, by UniProt entry; tags and fusion partners are left off.
UniProt P13010: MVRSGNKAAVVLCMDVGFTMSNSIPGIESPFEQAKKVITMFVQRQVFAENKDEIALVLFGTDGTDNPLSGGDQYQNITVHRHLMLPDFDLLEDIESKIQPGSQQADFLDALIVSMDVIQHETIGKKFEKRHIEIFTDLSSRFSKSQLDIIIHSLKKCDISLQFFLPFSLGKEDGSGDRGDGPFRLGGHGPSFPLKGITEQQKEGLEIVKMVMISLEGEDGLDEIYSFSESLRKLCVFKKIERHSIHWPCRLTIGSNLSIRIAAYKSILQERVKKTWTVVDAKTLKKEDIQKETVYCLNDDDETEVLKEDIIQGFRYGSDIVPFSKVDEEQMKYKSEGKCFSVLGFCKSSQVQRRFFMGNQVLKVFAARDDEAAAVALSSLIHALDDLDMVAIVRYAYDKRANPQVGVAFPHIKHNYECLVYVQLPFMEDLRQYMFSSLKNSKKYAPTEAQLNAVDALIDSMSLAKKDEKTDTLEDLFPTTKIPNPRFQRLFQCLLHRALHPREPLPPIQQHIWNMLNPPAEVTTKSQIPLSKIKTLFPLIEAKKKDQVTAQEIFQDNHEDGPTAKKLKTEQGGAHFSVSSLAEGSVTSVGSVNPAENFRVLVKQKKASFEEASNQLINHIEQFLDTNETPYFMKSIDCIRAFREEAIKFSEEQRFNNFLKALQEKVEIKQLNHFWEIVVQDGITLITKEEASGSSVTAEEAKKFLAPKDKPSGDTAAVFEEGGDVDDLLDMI
UniProt P78527: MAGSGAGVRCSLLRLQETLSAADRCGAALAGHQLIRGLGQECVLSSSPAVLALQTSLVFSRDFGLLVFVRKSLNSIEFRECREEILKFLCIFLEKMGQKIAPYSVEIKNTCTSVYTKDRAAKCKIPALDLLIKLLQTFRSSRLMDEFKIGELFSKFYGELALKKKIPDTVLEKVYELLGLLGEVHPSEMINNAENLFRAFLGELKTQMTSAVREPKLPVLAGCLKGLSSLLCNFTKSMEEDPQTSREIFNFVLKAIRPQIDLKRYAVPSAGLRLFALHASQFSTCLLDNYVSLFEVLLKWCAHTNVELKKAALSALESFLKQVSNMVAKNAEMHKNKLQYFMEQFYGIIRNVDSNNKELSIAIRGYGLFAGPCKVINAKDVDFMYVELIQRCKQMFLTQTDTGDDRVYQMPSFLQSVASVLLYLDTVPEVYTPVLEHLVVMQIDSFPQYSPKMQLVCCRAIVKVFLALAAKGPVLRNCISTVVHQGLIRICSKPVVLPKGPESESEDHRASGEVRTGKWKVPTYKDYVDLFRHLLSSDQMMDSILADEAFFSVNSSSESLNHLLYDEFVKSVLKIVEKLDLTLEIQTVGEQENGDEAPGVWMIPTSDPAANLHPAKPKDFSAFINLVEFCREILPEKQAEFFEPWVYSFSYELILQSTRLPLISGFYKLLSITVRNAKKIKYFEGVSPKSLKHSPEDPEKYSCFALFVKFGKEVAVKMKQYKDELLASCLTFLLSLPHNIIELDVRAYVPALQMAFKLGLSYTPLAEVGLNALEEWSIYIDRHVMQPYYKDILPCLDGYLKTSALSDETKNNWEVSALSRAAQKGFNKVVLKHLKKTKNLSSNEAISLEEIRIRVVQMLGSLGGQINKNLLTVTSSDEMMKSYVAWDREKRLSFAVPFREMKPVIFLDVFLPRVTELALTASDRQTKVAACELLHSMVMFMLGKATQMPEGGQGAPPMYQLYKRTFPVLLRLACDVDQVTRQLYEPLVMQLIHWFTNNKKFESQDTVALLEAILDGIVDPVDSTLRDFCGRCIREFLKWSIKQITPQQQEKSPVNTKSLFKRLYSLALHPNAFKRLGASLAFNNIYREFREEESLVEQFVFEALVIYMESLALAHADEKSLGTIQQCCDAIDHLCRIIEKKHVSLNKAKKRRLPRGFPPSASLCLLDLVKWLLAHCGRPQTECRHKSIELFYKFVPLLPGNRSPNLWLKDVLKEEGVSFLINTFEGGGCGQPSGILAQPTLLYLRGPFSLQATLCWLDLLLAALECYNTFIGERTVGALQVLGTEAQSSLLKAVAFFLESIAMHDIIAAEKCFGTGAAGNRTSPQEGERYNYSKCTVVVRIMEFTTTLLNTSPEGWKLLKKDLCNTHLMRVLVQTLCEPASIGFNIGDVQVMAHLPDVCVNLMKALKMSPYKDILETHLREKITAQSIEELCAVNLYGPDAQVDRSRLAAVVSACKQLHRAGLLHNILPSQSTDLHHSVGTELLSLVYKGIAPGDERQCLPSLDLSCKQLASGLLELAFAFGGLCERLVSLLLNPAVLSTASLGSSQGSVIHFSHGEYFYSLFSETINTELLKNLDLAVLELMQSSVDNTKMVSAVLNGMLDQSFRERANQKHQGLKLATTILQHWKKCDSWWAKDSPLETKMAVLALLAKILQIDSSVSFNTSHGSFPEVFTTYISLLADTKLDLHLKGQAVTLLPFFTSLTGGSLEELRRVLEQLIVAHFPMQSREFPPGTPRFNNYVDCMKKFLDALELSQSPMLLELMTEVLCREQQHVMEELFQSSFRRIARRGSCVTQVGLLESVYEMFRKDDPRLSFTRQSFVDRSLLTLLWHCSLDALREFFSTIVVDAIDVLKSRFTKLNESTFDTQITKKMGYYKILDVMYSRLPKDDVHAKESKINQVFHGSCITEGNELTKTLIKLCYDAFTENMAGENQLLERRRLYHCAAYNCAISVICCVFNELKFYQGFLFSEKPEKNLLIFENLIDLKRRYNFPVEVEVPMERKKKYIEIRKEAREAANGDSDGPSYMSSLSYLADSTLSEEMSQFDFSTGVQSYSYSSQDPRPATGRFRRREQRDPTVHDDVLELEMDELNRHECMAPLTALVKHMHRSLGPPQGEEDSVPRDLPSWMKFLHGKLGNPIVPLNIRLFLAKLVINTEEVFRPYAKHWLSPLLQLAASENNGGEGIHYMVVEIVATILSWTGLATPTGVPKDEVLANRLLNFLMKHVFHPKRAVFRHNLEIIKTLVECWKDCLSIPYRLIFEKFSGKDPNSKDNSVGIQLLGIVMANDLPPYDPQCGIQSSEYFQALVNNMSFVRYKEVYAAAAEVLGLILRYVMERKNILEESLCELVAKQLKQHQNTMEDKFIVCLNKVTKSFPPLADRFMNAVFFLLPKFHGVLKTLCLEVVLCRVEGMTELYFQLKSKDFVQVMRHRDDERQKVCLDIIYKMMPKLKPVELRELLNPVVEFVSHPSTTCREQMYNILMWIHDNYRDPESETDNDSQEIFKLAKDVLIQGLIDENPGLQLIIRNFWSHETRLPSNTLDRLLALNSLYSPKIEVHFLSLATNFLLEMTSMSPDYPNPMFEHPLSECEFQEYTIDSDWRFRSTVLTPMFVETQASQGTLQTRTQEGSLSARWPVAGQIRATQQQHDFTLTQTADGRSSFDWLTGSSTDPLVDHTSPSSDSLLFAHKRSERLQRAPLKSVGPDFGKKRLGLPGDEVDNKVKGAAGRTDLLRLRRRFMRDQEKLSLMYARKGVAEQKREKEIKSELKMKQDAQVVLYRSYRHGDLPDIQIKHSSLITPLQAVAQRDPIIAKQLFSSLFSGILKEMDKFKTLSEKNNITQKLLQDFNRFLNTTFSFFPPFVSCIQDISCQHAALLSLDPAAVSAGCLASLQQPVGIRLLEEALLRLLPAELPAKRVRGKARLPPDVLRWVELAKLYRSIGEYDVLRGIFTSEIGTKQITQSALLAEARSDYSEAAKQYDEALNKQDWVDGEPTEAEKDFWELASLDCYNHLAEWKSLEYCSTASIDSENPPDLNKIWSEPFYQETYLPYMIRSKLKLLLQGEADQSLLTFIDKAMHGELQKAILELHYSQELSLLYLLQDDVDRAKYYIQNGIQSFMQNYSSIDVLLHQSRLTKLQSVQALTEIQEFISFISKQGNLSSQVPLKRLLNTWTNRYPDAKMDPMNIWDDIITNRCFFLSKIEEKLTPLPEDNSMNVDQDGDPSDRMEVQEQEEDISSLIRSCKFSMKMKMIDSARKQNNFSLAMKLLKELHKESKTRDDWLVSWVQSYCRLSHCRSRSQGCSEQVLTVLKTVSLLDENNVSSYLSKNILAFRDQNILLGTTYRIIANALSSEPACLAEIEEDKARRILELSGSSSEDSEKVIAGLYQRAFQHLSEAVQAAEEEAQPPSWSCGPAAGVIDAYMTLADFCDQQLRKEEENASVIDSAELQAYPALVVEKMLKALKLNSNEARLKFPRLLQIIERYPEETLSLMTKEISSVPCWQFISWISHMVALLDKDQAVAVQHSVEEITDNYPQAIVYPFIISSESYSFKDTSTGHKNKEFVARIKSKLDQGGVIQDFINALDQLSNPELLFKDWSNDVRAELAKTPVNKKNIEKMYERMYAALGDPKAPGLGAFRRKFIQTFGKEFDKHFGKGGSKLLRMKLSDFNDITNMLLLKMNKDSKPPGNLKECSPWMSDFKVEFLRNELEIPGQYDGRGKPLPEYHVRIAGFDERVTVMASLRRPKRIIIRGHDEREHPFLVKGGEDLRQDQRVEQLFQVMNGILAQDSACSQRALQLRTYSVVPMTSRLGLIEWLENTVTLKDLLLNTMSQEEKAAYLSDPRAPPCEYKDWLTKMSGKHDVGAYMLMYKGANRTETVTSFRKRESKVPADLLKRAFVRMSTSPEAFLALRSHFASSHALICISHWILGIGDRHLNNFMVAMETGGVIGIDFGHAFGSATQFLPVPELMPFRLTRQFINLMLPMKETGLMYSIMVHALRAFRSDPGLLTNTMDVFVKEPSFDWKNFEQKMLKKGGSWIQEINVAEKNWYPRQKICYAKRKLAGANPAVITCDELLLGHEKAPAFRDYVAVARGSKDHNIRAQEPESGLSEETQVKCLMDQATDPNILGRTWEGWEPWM
UniProt Q9BUR4: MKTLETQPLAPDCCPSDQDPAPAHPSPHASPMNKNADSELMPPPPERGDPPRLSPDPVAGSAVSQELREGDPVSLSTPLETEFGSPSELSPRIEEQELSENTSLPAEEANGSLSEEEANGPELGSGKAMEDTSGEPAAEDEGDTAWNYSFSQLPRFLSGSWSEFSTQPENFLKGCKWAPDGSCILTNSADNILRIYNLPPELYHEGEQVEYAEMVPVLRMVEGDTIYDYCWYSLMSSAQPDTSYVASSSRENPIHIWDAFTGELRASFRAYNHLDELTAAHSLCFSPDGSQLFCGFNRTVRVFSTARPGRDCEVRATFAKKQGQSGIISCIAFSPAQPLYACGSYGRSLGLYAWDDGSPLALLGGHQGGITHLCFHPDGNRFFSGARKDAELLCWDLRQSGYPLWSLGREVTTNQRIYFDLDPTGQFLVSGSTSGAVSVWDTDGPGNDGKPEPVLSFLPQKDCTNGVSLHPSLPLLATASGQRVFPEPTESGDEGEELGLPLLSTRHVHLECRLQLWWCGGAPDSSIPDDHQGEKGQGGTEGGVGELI
UniProt P38432: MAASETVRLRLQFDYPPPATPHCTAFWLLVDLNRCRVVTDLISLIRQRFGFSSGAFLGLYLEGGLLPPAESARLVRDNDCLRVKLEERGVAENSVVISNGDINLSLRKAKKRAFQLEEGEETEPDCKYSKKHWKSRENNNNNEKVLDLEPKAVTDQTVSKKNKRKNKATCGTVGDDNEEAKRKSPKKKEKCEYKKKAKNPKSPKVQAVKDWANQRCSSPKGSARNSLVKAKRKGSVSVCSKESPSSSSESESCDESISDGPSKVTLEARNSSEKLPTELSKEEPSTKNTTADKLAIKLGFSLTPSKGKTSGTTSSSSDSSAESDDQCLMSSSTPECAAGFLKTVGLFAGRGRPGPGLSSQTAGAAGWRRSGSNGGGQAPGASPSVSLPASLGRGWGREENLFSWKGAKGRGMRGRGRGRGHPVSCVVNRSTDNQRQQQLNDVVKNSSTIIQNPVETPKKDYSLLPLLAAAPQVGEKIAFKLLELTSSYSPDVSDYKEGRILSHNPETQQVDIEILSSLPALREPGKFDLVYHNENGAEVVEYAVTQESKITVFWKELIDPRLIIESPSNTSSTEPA

Measured: binding

WRAP53β (WD40 encoding RNA Antisense to p53) (from UniProt Q9BUR4 1-548)
binds: all assays above

coilin (from UniProt P38432 1-576)
binds: all assays above

Reference: article PMC8866460
